# Source: PubChem BioAssay AID1259415 (National Center for Advancing Translational Sciences (NCATS), 2018)
# Several values for one entry are separate records, joined by “and”; a condition that tells them apart may be missing. Identical values can stand only once. The campaign covered roughly 410,000 compounds. About 18,000 (4.4%) were called active. The shares of active, inactive and inconclusive entries below differ from those in the screen. No stated cut-off is given here; in the data, active means activity change below about -60%; inconclusive means no clear call, values can overlap the other calls; inactive means above about -39%.
# Assay: qHTS Assay for inhibitors of the human cytomegalovirus (HCMV)
# Settings: HFF cells, HCMV-luciferase reporter, 72 h; at 57.5 µM; stronger effect = lower value
# Outline: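 Steps: HFFs plated, 16 h 37C; compounds added; HCMV-luciferase added to MOI 1 PFU/cell; 72 h 37C; OneGlo reagent, 5 min room temperature; luminescence read, normalized to controls.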
# On the % scale 0 is the no-effect control and ±100 the full control effect.
row,SMILES,"activity change, negative = inhibition"
1,O=C(NCCC1=CCCCC1)c1ccc(Cl)c(S(=O)(=O)Nc2ccccc2)c1,inconclusive: -50.2%
2,CC(C)Cn1c(-c2cccs2)nc2nc3ccccc3nc21,inconclusive: -53.7%
3,O=C(Cn1ccn(-c2ccc(F)cc2)c(=O)c1=O)Nc1ccc(F)cc1,inactive: -1.61%
4,Cc1cccc(NC2=NC(C)(C)N=C(N)N2)c1,active: -98.2%
5,CCN(CC)C(=O)c1sc2c(c1C)c(=O)n(CCc1ccccc1)c(=O)n2Cc1cc(C)ccc1C,inactive: 11.3%
6,CN(CC(=O)Nc1ccncc1)S(=O)(=O)c1ccc(Br)cc1,inconclusive: -42.2%
7,CCc1ccccc1OCC(=O)Nc1nc(-c2cccnc2)cs1,active: -65.2%
8,NS(=O)(=O)c1ccc(CCNCc2cccs2)cc1,inconclusive: -55.6%
9,COc1ccc2c(c1)C(C(Nc1ccc(C)cc1)c1ccc(Cl)cc1)C(=O)N2C (stereo unspecified),inactive: 39.3%
10,Cc1[nH]n(-c2cccc(Cl)c2)c(=O)c1-c1ccc(Cl)cc1,active: -66.9%
11,O=C1c2ccccc2C(c2nnnn2-c2ccc3c(c2)OCCO3)N1Cc1ccco1 (stereo unspecified),inconclusive: -40%
12,Cc1ccc(Cl)cc1NC(=S)N(CCCN1CCN(C)CC1)Cc1ccco1,inconclusive: -41.2%
13,C/C(=N\NC(=O)c1nonc1N)c1cccs1,inactive: 79.8%
14,COc1ccc(N(Cc2cccs2)C(=O)c2ccc(OC)c(Cl)c2)cc1,active: -91.1%
15,Cc1cccc(-c2n[nH]c(=S)n2/N=C/c2cccs2)c1,inconclusive: -51.5%
16,O=C(NC1CCS(=O)(=O)C1)/C(=C\c1ccc(F)cc1)NC(=O)c1ccccc1 (stereo unspecified),inconclusive: -43.7%
17,Cc1ccc(C(=O)N(Cc2ccccc2)C(C)(C)C)cc1C,inconclusive: -47.9%
18,COc1ccc(N(CC(=O)NCc2ccccc2C)S(=O)(=O)c2ccccc2[N+](=O)[O-])c(OC)c1,inconclusive: -41.4%
19,CC(Sc1nc2ccccc2c(=O)n1CC1CCCO1)C(=O)N(C)c1ccccc1 (stereo unspecified),inconclusive: -55.6%
20,Cc1noc(/C=C/c2ccccn2)c1[N+](=O)[O-],active: -102%
21,COc1ccc(N2CCN(C(=O)c3ccc(COc4ccc([N+](=O)[O-])cc4)o3)CC2)cc1,inconclusive: -45%
22,COc1ccc(C(=O)OCCNC(=O)c2c(Cl)nc3ccccn23)cc1,inconclusive: -40.1%

row,SMILES,"activity change, negative = inhibition"
1,CC(C)n1ncc2c(C(=O)NCCOc3ccccc3F)cc(C3CC3)nc21,inconclusive: -46.7%
2,COC(=O)[C@@]12C[C@@H](CC(=O)NCC3CCCCC3)C(=O)N(Cc3ccc4c(c3)OCO4)C1=CCC(C)(C)C2,inactive: 4.41%
3,c1ccc(Cn2nnnc2CN2CCN(Cc3ccc4c(c3)OCO4)CC2)cc1,inconclusive: -42.4%
4,CC(=O)N1c2ccc(S(=O)(=O)NCCC(=O)Nc3ncccc3C)cc2CC1C (stereo unspecified),inconclusive: -50.5%
5,COc1ccc(-c2ccc(C(C)=O)cc2)cc1[C@H]1[C@H]2C=CC[C@@H](C)[C@@H]2C(=O)N1Cc1ccccc1,active: -90%
6,CC(=O)Nc1ccc2sn(-c3ccccc3)c(=O)c2c1,inconclusive: -49%
7,CCCOc1ccc(/C=N/Nc2cccc([N+](=O)[O-])c2)c(O)c1,inconclusive: -53.1%
8,CCN(CC)S(=O)(=O)c1ccc2c(c1)c(=O)c(C(=O)N1CCN(c3cc(Cl)ccc3C)CC1)cn2C,inactive: 7.51%
9,O=C(CCC(=O)N1CCN(C2CCCC2)CC1)Nc1nnc(C(F)(F)F)s1,inconclusive: -48.2%
10,O=C(CO/N=C/c1ccc(OC(F)F)cc1)NC1CCCCCC1,inconclusive: -40.3%
11,Cc1ccc(C)c(-c2ccc(=O)n(Cc3c(F)cccc3Cl)n2)c1,inactive: -35.9% and inconclusive: -55%
12,CC1CC(C)CN(C(=O)CCNC(=O)c2ccccc2Cl)C1 (stereo unspecified),inactive: 4.02%
13,Cc1cccc(N2CCN(S(=O)(=O)c3ccc4c(c3)NC(=O)CS4)CC2)c1C,inconclusive: -53.3%
14,CCOC(=O)C1(Cc2cccc(F)c2)CCN(C(=O)c2cnc(C)cn2)CC1,inconclusive: -55.3%
15,Cc1ccc(Cn2nc3c4cc(F)ccc4n(Cc4ccc(F)cc4)cc-3c2=O)cc1,inactive: 6.01%
16,Cc1cc(/C=N/N2CCN(C)CC2)c(C)n1-c1ccc(Cl)cc1,inactive: 0%
17,Cc1cccn2c(=O)c3cc(C#N)c(=O)n(-c4nnc(SCc5ccc(Cl)cc5)s4)c3nc12,inconclusive: -44.7%
18,COc1ccccc1NC(=O)CN1CCN(CC(=O)Nc2ccc(C)c(F)c2)CC1,inconclusive: -51%
19,COc1ccc(CC(=O)Nc2cccc(S(=O)(=O)N3CCCC3)c2)cc1OC,active: -85.4%
20,Cc1oc(-c2ccccc2Cl)nc1CSc1nc2c(c(=O)[nH]1)CCC2,inactive: -15.5%
21,Cc1ccc(S(=O)(=O)N2C/C=C\CN(S(=O)(=O)c3ccccc3Br)CC2)cc1,inconclusive: -46.9%
22,Cn1nc(-c2ccccc2F)c2cc(C(=O)Nc3ccc4c(c3)OCCO4)sc21,inactive: 114%

row,SMILES,"activity change, negative = inhibition"
1,CCc1ccc(Cn2c(CNS(=O)(=O)c3ccc(C)c(C)c3)nc3cccnc32)cc1,inactive: 4.91%
2,Cc1ccc(C2NC(=S)NC3=C2C(=O)CC(C)(C)C3)cc1 (stereo unspecified),inconclusive: -41.6%
3,O=C(COC(=O)c1ccco1)NCc1ccc(Cl)cc1,inconclusive: -43.4%
4,Cc1cc(C)c2nc(Cl)c(CN(Cc3ccco3)C(=O)Nc3ccccc3C)cc2c1,active: -62.7%
5,Cc1oc(-c2ccccc2)cc1C(=O)NCc1ccncc1,inactive: 15.3%
6,CN(Cc1ccc(Cl)cc1Cl)C(=O)CCNC(=O)c1ccco1,inactive: -10.8%
7,COc1ccc(N2C(=O)CC(N3CCN(C(=O)c4ccco4)CC3)C2=O)cc1 (stereo unspecified),inconclusive: -42.3%
8,CCC1CCCCN1CCCNC(=O)c1ccc(CS(=O)(=O)Cc2ccc(Cl)cc2)o1 (stereo unspecified),inconclusive: -55.4%
9,CC(C(=O)NCc1ccco1)n1ccc2cc(S(=O)(=O)N3CCCCC3)ccc21 (stereo unspecified),inconclusive: -45.8%
10,CCOCCCn1c(=S)[nH]c2cc(C(=O)NCCCN(CC)CC)ccc2c1=O,inconclusive: -41.5%
11,CC(OC(=O)c1ccc(F)c(S(=O)(=O)N2CCOCC2)c1)C(=O)NC1CCCC1 (stereo unspecified),inconclusive: -47.6%
12,Cc1ccc(C(=O)N2CCN(c3cnn(C)c(=O)c3Cl)CC2)cc1,inconclusive: -54.7%
13,Cc1cc(C)c2sc(N3CCN(C(=O)c4ccc(N(C)C)cc4)CC3)nc2c1,inactive: -13.4%
14,CCC(C)NS(=O)(=O)c1ccc(NC(=O)c2ccc([N+](=O)[O-])cc2Cl)cc1 (stereo unspecified),inconclusive: -45.4%
15,COc1cccc(-c2nnc3sc(-c4cccs4)nn23)c1,inconclusive: -40.6%
16,Cc1sc2ncnc(N/N=C/c3ccccc3O)c2c1C,active: -101%
17,Clc1ccc(CN2CCCCCCC2)cc1,inconclusive: -44%
18,COc1cccc(CNC(=O)[C@@H]2[C@@H](CO)[C@@H]3Cn4c(ccc(-c5cncnc5)c4=O)[C@H]2N3C(C)=O)c1,active: -101%
19,O=c1[nH]c(=O)n([C@H]2C[C@H](O)[C@@H](CO)O2)cc1F,active: -66.8%
20,O=C(C1COc2ccccc2O1)N1CCN(c2ccccn2)CC1 (stereo unspecified),inconclusive: -47.3%
21,CCOc1ccccc1CNCCSc1nnnn1C,inconclusive: -57.1%
22,Cc1c(-c2cccc(NC(=O)c3ccco3)c2)nc2ncccn12,active: -76%

row,SMILES,"activity change, negative = inhibition"
1,COCCCn1c(N)c(-c2nc3ccccc3n2C)c2nc3ccccc3nc21,inconclusive: -59.6%
2,Cc1ccccc1COc1ccc(/C=C(\C#N)C(N)=O)cc1,inactive: 6.58%
3,CCCOc1ccccc1/C=C1\SC(N2CCCCC2)=NC1=O,active: -81.9%
4,CCc1cc(C(=O)NC2CCCc3c2cnn3-c2ccc(F)cc2F)no1 (stereo unspecified),active: -71.3%
5,CCOC(=O)CCN(Cc1sccc1C)S(=O)(=O)c1ccc(F)cc1,inconclusive: -48.8%
6,CCN(CC(=O)NCc1cccs1)C(=O)/C=C/c1ccc(OC)cc1OC,inactive: -9.35%
7,Cc1cc(C)n2nc(SCC(=O)c3cccs3)nc2n1,inactive: 54.3%
8,CC(=O)/C(C#N)=C1\NC(=O)C(Cc2ccccc2)S1 (stereo unspecified),active: -99.3%
9,COc1cc(OC)c(-n2cc(-c3ccc(OC)c(OC)c3)[nH]c2=S)cc1Cl,inconclusive: -54.2%
10,CCC(C)Sc1ccc([C@H]2N[C@@](Cc3ccccc3)(C(=O)OC)[C@H]3C(=O)N(CC)C(=O)[C@@H]23)cc1 (stereo partly specified),inactive: 25.3%
11,CCOc1ccc(C(=O)Nc2ccc3nc(N4CCN(CC)CC4)cc(C)c3c2)cc1,inconclusive: -44.6%
12,Cc1cc(C(F)(F)F)nn1CC(=O)NCc1cccs1,inconclusive: -43.1%
13,CC1CCc2c(C(=O)NCc3ccco3)csc2C1 (stereo unspecified),inconclusive: -42.8%
14,Cc1nn(C)c(C)c1CN(C)C(=O)c1cc2n(n1)C(C(F)(F)F)CC(c1cccs1)N2 (stereo unspecified),inconclusive: -43.7%
15,O=C(c1cn(-c2ccccc2)nc1-c1ccc(Br)cc1)N1CCOCC1,inconclusive: -54.3%
16,Cc1ccc(-n2c(C)cc(C)c(C#N)c2=O)cc1C,inconclusive: -49.5%
17,COc1ccc(S(=O)(=O)N2CCCCCC2)cc1C(=O)N(C)CC(=O)Nc1ccccc1Cl,inconclusive: -41.5%
18,COc1cnn(-c2ccc([N+](=O)[O-])cc2)c(=O)c1Cl,inconclusive: -44.3%
19,Cc1ccc(-n2nc3ccc(NC(=S)NC(=O)/C=C/c4ccco4)cc3n2)cc1,active: -68.4%
20,CN(C)C(=S)SCC(=O)Nc1ccc(Cl)cc1Cl,inconclusive: -41.1%
